Experimental data published in PubChem BioAssay AID1347423 (Functional Genomics Laboratory (NCATS/FGL), 2020).
The whole screen tested about 52,000 sequences, of which about 210 (0.4%) were called active.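 How the source made its calls: active means gene whose silencing raises cell survival under the drug, median off-target-corrected z-score across its silencing RNAs 2 or more; inactive means the rest.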 This is one part of the list.

Assay: Resistance to Poly (ADP-Ribose) Polymerase inhibitor: Gene Identification via Genome-wide siRNA Screen
Details: mouse BRCA2 R2336H ES cells, olaparib, CellTiter-Glo viability; hits give high values
Method in brief: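 Mouse BRCA2 R2336H ES cells were reverse-transfected with siRNA (20 nM final), treated at 48 h with 500 nM olaparib, and read by CellTiter-Glo after 72 h. Scores: MAD-based z per siRNA, median per gene, seed off-target correction.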

Sequence	z-score
GGUAGAAGUGAAAAAGAUATT against Bhmt	inactive: -0.359
GGCACAGAUUGUGGUGAAGTT against D11Ertd707e	inactive: -2.74
GGAUGAACAACAAUCAAACTT against Btrc	inactive: -0.247
GCUAACGAAGGUAGUGUACTT against 0610037H22Rik	inactive: -0.92
GGUAAGUCCUAACAAACAATT against Nxph2	inactive: 3.68
AGGUAGAAAAACAAUACCGTT against 1200009F10Rik	inactive: 0.97
GGGUCAGCCAAAGGAAAAUTT against D230007K08Rik	inactive: -0.399
GGUUUACAGCACCAAGAUCTT against Itih3	inactive: 0.543
GGAGUACUAAGUCCAUUCCTT against Tuba2	inactive: 1.46
UUAACUACAAUCCAUCACUTT against Dscr1l1	inactive: -0.33
GGACCUGUACAAAAAGGGATT against Mag	inactive: 1.97
GGUGACUUGCUUUAGAAAATT against 2600017J23Rik	inactive: 0.703
GGAGGAAUUUCUUAAGCUUTT against Ivns1abp	inactive: -0.246
CCUGAUCCUCAGUUUGGUGTT against Prl	inactive: -0.52
GGAACUGCUAAGAGAGAAATT against 1810060J02Rik	inactive: -0.725
UGCCUGUAAACCAACAAGGTT against Prb1	inactive: -0.944
GCUUCUAUUUCAUCUUUGUTT against Krtap4-7	inactive: -0.152
GGACCAUUUUCAAUACUCUTT against Rps6kl1	inactive: -0.172
GCAUGUAUGGGCUGUUCAUTT against Olfr642	inactive: -2.63
GGGCAUCCUUCAACUUCAGTT against 4932417D18Rik	inactive: 0.632
GGAGAUUGGCUUCCAGAAATT against BC031853	inactive: -1.11
GCCAACCAUCAGUUUAUACTT against Oact1	inactive: -0.379
GCUGACUGCCAAGGAUUUUTT against Ogn	inactive: -0.0744
GCUGAAUAGCCUCUAUCUATT against Rasgrp4	inactive: 0.14
GGAUCCAAUACCAGCUAGUTT against Sh3bgrl3	inactive: -0.00984
GCAAAUCCCUCUGAAUGAUTT against Aox3	inactive: -0.358

Sequence	z-score
GCCCGCAUUCUUAUUCGAUTT against 9630015D15Rik	inactive: 0.786
GCCCAUUCUAAACAAAUAATT against Ptcd1	inactive: -0.471
GGGACUCUACCUUCAAUGUTT against Fkbp9	inactive: 0.43
GGCGACGAGUUUGAUGACUTT against Cri1	inactive: 0.4
CGGCUCAUAGGAAUGAUUUTT against Brf1	inactive: -2.6
GCGUAGGUUACGUUCAAGGTT against 2410011O22Rik	inactive: 1.06
GCGCAAGGAAUACAUGGUGTT against D11Bwg0434e	inactive: -0.202
GGAAGAAGAGGAUGAGAUUTT against Clcn6	inactive: -2.32
CGAAUUUACAAAGAACUUGTT against LOC238829	inactive: 1.59
GGGUACAUUCUGGAAAUUUTT against Ids	inactive: 0.0647
GGUCUUCUUCAAACAACUGTT against Hhip	inactive: -0.445
GGAAGUGGACACAGAAAAATT against BC048937	inactive: 0.172
GGCGGCUUUAGACAAGUAATT against Mrpl13	inactive: -2.29
CGUGCUGUGCCUUCUGAGUTT against Gtf2e2	inactive: -0.416
UAGGAAUUGGCUUCUACCUTT against Tdpoz2	inactive: 0.437
GCUGAUGAGUGGCUAUCAGTT against Coro6	inactive: -1.48
GGCCUUAUCGGCAGAUAUUTT against 9330161C17Rik	inactive: -0.752
GGCCGAAUCACAGAAACUCTT against Mrps18a	inactive: 0.82
CCUACAUGGGCAUCAUUAGTT against Tfpi2	inactive: 0.422
CCACUUUAAGACUGACUGUTT against Tnfrsf25	inactive: -0.523
GCUAGUAACAGCAAGCUUCTT against 4930441O14Rik	inactive: -0.138
GCAUCAACUGUUAGUAAAGTT against Hrb	inactive: -0.973
GGAGAGGACUGUAAAGUGCTT against C130034I18Rik	inactive: 0.317
CGCAUCUUAUCUUUCCUAATT against Ngly1	inactive: 0.723
CCUAAAAAGAGGAAAAGGGTT against Psg29	inactive: 0.664
GGAAAGCCCUCCGAAGUUUTT against Wsb2	inactive: -0.469

Sequence	z-score
GGCAAUUUCAGACAAGUAUTT against Tcfcp2l2	inactive: -0.37
CCAGAAACUAGCCUACUACTT against Vgll2	inactive: 0.636
CGUGUGUUUUACCCUAAAATT against 6.72E+21	inactive: 1.3
GGAAUCCAACCUCUGUGAUTT against Cdca2	inactive: -1.08
GGUUCAAAGGUGAUGGUGUTT against Dab2	inactive: 0.185
GGAAAUAAAACAGAUUUGGTT against Atpaf1	inactive: 1.42
GGUGAUCAUCCAUGAAUUCTT against Chaf1a	inactive: -1.71
GCUCACUUGUAGUGCUUUATT against Arf2	inactive: 0.000159
GAGUUGUACUCUUCACUAUTT against Olfr497	inactive: 1.77
GGAAUGUAAGAACCCUUGCTT against Adam19	inactive: 0.854
GGGUAACAUCUUCAGAUUUTT against Gpr109b	inactive: -0.494
GCAUCCUCUCACUCUCAAUTT against Grin2a	inactive: 2.14
CCUGUCUUUCUUUGAUCAATT against Tm4sf3	inactive: 0.417
GGAUAUUCAUGUUUCAUUGTT against Vipr2	inactive: -0.132
CGUGACAUGCACGACUUCUTT against Tac2	inactive: -0.83
GCCCUUUUACGGCAACAGATT against 5730419I09Rik	inactive: -0.148
GGCUGAUCUCUUUUGCCAGTT against Reg2	inactive: 0.282
GGACAACAAACUUUUCCUGTT against Ppgb	inactive: -0.277
CCAACUCGGCUGUUUUUUATT against F11r	inactive: 0.274
GCCUAAAAAAUCUCUGUGATT against Zswim3	inactive: -1.39
GGGAGGGACUUUUAAACUUTT against Ube2n	inactive: -1.28
GGAAACCUCAUCCAUUCCCTT against Ei24	inactive: 1.01
GGAACAAACGUGACUGUCATT against Rdh14	inactive: -1.52
CGCUGGUGGUAUAACCAAGTT against Wfdc6	inactive: -1.84
GGACAAGGCCCUCAUGAUUTT against Nek8	inactive: -0.254
CCAGGAAGAGAACUAUAAUTT against E130009J12Rik	inactive: 1.23

Sequence	z-score
GGCUAGAUUUCUGAUUCCCTT against F630022B06Rik	inactive: 1.2
GAAUUGUCUUACUUGGAAATT against Ian1	inactive: 0.519
GGCUACCUUUGUUAAAUCUTT against Rab10	inactive: 0.497
GGAGUCGAAUCUUCUCUAATT against 2310066I18Rik	inactive: -0.107
GGUGGUGAUAUCAAGAAUCTT against Sfxn3	inactive: -0.425
CGGUAAAGUGAAUCAUAGATT against Tas2r105	inactive: 0.51
GCUUGACGCGAACUUACCATT against Endog	inactive: 0.821
CCCUUCUCACUAACAUACATT against Dach1	inactive: 0.397
GGCAAGAUGAAUUAAAAUGTT against AW146020	inactive: 2.03
GGAAAUGCUGCCAUUGUUATT against Aldh3a2	inactive: -0.998
GGGUGAUCUGUAGUAUUUUTT against Olfr574	inactive: -0.987
CGUGUGGAGUAAACACCAATT against Herc3	inactive: 0.183
CCCAGUGAUUAAGGCUUUCTT against BC010801	inactive: -1.38
CCCUAUCAUCAGUUUCCGGTT against B230363K08Rik	inactive: -1.19
CGAUGUCAUGCUCAGCGCATT against Nlgn2	inactive: 0.611
GGAGCUUGAAGCAUCCUAGTT against Bdkrb2	inactive: 2.25
GGUACGGUUAAUAGCCACGTT against Snai2	inactive: 1.05
GCAUUACCAAAAGCAGUCUTT against Lyn	inactive: -0.0659
GCGGUUGAUGUCCUGUGUUTT against Adra1b	inactive: 0.499
GCAAACUAUUUGUCUGGUGTT against Ripk1	inactive: -0.277
GGCUAUUGUAUGAAAUUGUTT against BC050092	inactive: 0.435
GGUGACCUGUAAAUGCAACTT against Fln29	inactive: 0.634
GCCAUGUUAACUGCCUCAATT against Bmyc	inactive: 0.0127
GGUAAAAGGUGCCUUGAGATT against Olfr446	inactive: 0.807
GGAGAAAAGGACUGAAGGCTT against Ralbp1	inactive: -0.101
GCUCCAACGUAAGUGGGAATT against 1700123L14Rik	inactive: -0.0343

A few values from the entries so far:
Value of CCCAGUGAUUAAGGCUUUCTT against BC010801 under z-score: inactive: -1.38
Value of GCCAUGUUAACUGCCUCAATT against Bmyc under z-score: inactive: 0.0127
Value of GGAAAUGCUGCCAUUGUUATT against Aldh3a2 under z-score: inactive: -0.998
Value of CGAUGUCAUGCUCAGCGCATT against Nlgn2 under z-score: inactive: 0.611
